Measured values: patent publication US20040086848A1 (University of Texas, published 2004)
These are yes or no findings as the source states them, for the method shown. For some assays here: Binding seen in cells or lysates may run through a third protein. Some binding calls cover weakened binding; strength is not graded here. Sequences can lack the tags named with a protein.

Legend:
[1] = target: RAIN mutant K174A/R176A/A180T (from pCMV3×FLAG-hRAIN, stably expressed in RAW cells) (human) (UniProt Q96GX9); test: gel filtration chromatography
[2] = target: T1, endogenous RANK of RAW264.7 cells (mouse, UniProt O35305 31-625); test: interaction with endogenous RANK in RAW cells (data not shown)
T1 construct: whole, on cells; Immunoprecipitated from cell lysates with anti-RANK; The species follows from the mouse cell line
T1 sequence (looked up): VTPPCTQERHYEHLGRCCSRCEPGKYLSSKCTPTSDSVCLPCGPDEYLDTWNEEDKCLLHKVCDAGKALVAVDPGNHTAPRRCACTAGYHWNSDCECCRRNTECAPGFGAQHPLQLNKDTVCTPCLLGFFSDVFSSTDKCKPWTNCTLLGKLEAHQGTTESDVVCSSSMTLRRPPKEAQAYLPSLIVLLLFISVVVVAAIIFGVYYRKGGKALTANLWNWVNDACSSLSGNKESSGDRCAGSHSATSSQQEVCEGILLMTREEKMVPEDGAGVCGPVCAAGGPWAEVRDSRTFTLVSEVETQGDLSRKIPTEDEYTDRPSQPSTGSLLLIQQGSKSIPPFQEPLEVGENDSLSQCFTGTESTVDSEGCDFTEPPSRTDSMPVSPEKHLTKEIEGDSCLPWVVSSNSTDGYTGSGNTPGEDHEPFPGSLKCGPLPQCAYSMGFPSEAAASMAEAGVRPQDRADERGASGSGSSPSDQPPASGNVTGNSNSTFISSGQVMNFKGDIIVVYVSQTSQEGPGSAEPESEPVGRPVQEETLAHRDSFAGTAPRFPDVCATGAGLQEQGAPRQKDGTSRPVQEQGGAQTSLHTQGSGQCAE

[3] = target: T1, endogenous RANK of RAW264.7 cells; test: co-immunoprecipitation with anti-RANK, western blot with anti-FLAG
[4] = target: T1, endogenous RANK of RAW264.7 cells; test: co-immunoprecipitation with anti-RANK, western blot with anti-FLAG, FIG. 2A
[5] = target: RAIN (human RAIN, full length, untagged; pcDNA3-RAIN) (human) (UniProt Q96GX9); test: yeast two-hybrid analysis and gel filtration chromatography

B1: RAIN mutant K174A/R176A/A180T (from pCMV3×FLAG-hRAIN, stably expressed in RAW cells) (protein, human, UniProt Q96GX9 1-242, looked up, not shown: small tags and cut ends)
chain: MSGCDAREGDCCSRRCGAQDKEHPRYLIPELCKQFYHLGWVTGTGGGISLKHGDEIYIAPSGVQKERIQPEDMFVCDINEKDISGPSPSKKLKKSQCTPLFMNAYTMRGAGAVIHTHSKAAVMATLLFPGREFKITHQEMIKGIKKCTSGGYYRYDDMLVVPIIENTPEEKDLADAMAHTMNEYPDSCAVLVRRHGVYVWGETWEKAKTMCECYDYLFDIAVSMKKVGLDPSQLPVGENGIV
- binding [1]: binds
- binding [2]: binds

B2: FLAG-tagged RAIN (human RAIN with a 3×FLAG tag at the C-terminus, from pCMV3×FLAG-hRAIN, stably expressed in RAW cells) (protein, UniProt Q96GX9 1-242, looked up, not shown: small tags and cut ends)
chain: MSGCDAREGDCCSRRCGAQDKEHPRYLIPELCKQFYHLGWVTGTGGGISLKHGDEIYIAPSGVQKERIQPEDMFVCDINEKDISGPSPSKKLKKSQCTPLFMNAYTMRGAGAVIHTHSKAAVMATLLFPGREFKITHQEMIKGIKKCTSGGYYRYDDMLVVPIIENTPEEKDLKDRMAHAMNEYPDSCAVLVRRHGVYVWGETWEKAKTMCECYDYLFDIAVSMKKVGLDPSQLPVGENGIV
- binding [3]: binds
- binding [4]: binds

B3: RAIN (human RAIN, full length, untagged; pcDNA3-RAIN) (protein, UniProt Q96GX9 1-242, looked up)
chain: MSGCDAREGDCCSRRCGAQDKEHPRYLIPELCKQFYHLGWVTGTGGGISLKHGDEIYIAPSGVQKERIQPEDMFVCDINEKDISGPSPSKKLKKSQCTPLFMNAYTMRGAGAVIHTHSKAAVMATLLFPGREFKITHQEMIKGIKKCTSGGYYRYDDMLVVPIIENTPEEKDLKDRMAHAMNEYPDSCAVLVRRHGVYVWGETWEKAKTMCECYDYLFDIAVSMKKVGLDPSQLPVGENGIV
- binding [5]: binds
